The values below come from patent US5942489A (The Administrators of the Tulane Educational Fund, priority 1996, dated 1999).

Series [1] in a line: general procedure: Boc solid-phase peptide synthesis; benzhydrylamine (BHA) resin (Bachem) or MBHA; Boc-Agm-SPA-aminomethyl resin (California Peptide Research); DIC (or BOP); preformed HOBt esters for Boc-Asn-OH and Boc-Gln-OH; HBTU/HOBt/DIE. The conditions noted are these: whole synthesis, 220 and 280 nm, scale of the general procedure 0.044 mmole (100 mg BHA resin), 0.06 mmole (200 mg Agm resin).

The nature of series [2]: general procedure: Boc solid-phase peptide synthesis; BHA resin; DIC (or BOP); preformed HOBt esters for Boc-Asn-OH and Boc-Gln-OH; HBTU/HOBt/DIE. The conditions noted are these: whole synthesis, scale 0.044 mmole.

HELM strings list residues between dots; [ac] is acetyl, [am] amide, other brackets name non-standard units. For part of these data: The same purity stands for every peptide and may come from a single statement.

For the substance “PEPTIDE1{[Ibu].Y.[dR].D.A.I.[Phe(pCl)].T.N.S.Y.R.K.V.L.[Abu].Q.L.S.A.R.K.L.L.Q.D.I.[Nle].S.[Cit].[am]}$$$$V2.0”, in series [1], the “final HPLC purity” value is greater than 95%. For the same substance, the crude mass in series [2] is reported as 34 mg.

For “PEPTIDE1{[PhAc].Y.[dR].D.A.I.[Phe(pCl)].T.N.S.Y.R.K.V.L.A.Q.L.S.A.R.K.L.L.Q.D.I.[Nle].S.R.[am]}$$$$V2.0”, the “final HPLC purity” value in series [1] was greater than 95%. Moreover, the crude mass in series [2] turned out to be 98 mg.

“PEPTIDE1{[PhAc].Y.[dR].D.A.I.[Phe(pCl)].T.S.S.Y.R.K.V.L.A.Q.E.S.A.R.K.L.L.Q.D.I.[Nle].S.R.[am]}$PEPTIDE1,PEPTIDE1,18:R3-22:R3$$$V2.0”: in series [1], the “final HPLC purity” value is greater than 95%. Besides, the crude mass in series [2] worked out at 13.7 mg.
